The nature of the data set: Periplasmic expression / stability under oxidizing conditions. Further details: species or system E. coli. To be noted: compared to PGEA-hAGT. The protocol: The activities towards AGT substrates are measured after purification without addition of reducing agents such as dithiothreitol or beta-mercaptoethanol. Alternatively, the activities of mutant AGT and wild type human are compared after their export into cellular compartments with oxidising redox potential (e.g. the periplasm of E. coli due to their fusion to appropriate signal sequences. Activity towards AGT substrates under reducing and oxidising conditions is compared by performing the reactions in the presence or absence of reducing agents such as dithiothreitol or beta-mercaptoethanol.
The mutant AGT gene of Example 1 is amplified and cloned as described in Example 1 with the oligonucleotides SEQ ID NO:3, SEQ ID NO:10 and SEQ ID NO:4, SEQ ID NO:9 causing the further mutation Cys62Ala in the gene upon their incorporation by PCR. Protein expression, purification and determination of yield is carried out as described in Example 1. […] The supernatant is directly subjected to quantification of protein yield via SDS-PAGE and activity assays as described in Example 1.
Stability under oxidizing conditions: The mutant gene is PCR amplified with the primers SEQ ID NO:11 and SEQ ID NO:28 to subclone the gene into pAK100, as described in Example 2. […] The anti-FLAG IgG antibody is used to estimate the total amount of soluble AGT protein, whereas neutravidin quantifies the reactive portion of it. […]

B1: AGTM: AGT mutant Cys62Ala, Gln115Ser, Gln116His, Lys125Ala, Ala127Thr, Arg128Ala, Gly131Lys, Gly132Thr, Met134Leu, Arg135Ser, Cys150Asn, Ser151Ile, Ser152Asn, Asn157Gly, Ser159Glu, truncated after … (protein, UniProt P16455 1-207, looked up, variant C62A Q115S Q116H K125A A127T R128A G131K G132T M134L R135S C150N S151I S152N N157G S159E del183-207)
Methylated-DNA--protein-cystei …: MDKDCEMKRTTLDSPLGKLELSGCEQGLHEIKLLGKGTSAADAVEVPAPAAVLGGPEPLMQATAWLNAYFHQPEAIEEFPVPALHHPVFQQESFTRQVLWKLLKVVKFGEVISYSHLAALAGNPAATAAVKTALSGNPVPILIPCHRVVNINGAVGGYEGGLAVKEWLLAHEGHRLGKPGLG
modifications: His tag
In the case of B1, the “amount of protein from periplasmic expression” value is given as “two to threefold more”.

The record behind these values is patent US7888090B2, “Mutants of O6-alkylguanine-DNA alkyltransferase” (Ecole Polytechnique Federale de Lausanne, priority 2004, dated 2011).
